Record: PubChem BioAssay AID743458 (Peter MacCallum Cancer Centre, 2014)
Test: 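Identify genes whose loss lifts vorinostat resistance in colon cancer cells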 (follow-up of hits). Cells: human HCT116-VR colon cancer cells made resistant to vorinostat. Reagents: single siRNA or pool against human genes, 25 nM per single siRNA. Duration: about 72 h after transfection, including 24 h of drug. Conditions: vorinostat, 2.5 µM final, for 24 h. Measured: 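Cell viability by fluorescence and apoptosis by caspase 3/7 luminescence under vorinostat, background-corrected, averaged across two plate copies and given as fold change versus mock transfection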. Scale: viability relative to mock: higher = more living cells than mock; caspase activity relative to mock: higher = more apoptosis than mock. Hit rule: 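Active means a reduced-viability or caspase-activation class, anything else inactive; classes could only be given to wells that looked healthy when left untreated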.
Here is a random part of about 1,800 reagents. 732 of them (41%) were called active. 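Calls are per siRNA reagent; a gene was deemed confirmed only if most of its four siRNAs scored.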 The numbers tell different reagents against one gene apart.

target	reagent no.	viability relative to mock	caspase activity relative to mock	viability hit class	caspase hit class	outcome
VPS11 (VPS11 core subunit of CORVET and HOPS complexes)	1	0.88	1.61	no change	no change	inactive
VPS11 (VPS11 core subunit of CORVET and HOPS complexes)	2	0.84	1.17	no change	no change	inactive
VPS11 (VPS11 core subunit of CORVET and HOPS complexes)	3	0.88	2.33	no change	no change	inactive
VPS11 (VPS11 core subunit of CORVET and HOPS complexes)	4	0.78	1.48	no change	no change	inactive
DDX18 (DEAD-box helicase 18)	1	0.46	2.61	reduced viability	caspase activation	active
DDX18 (DEAD-box helicase 18)	2	0.58	1.58	no change	no change	inactive
DDX18 (DEAD-box helicase 18)	3	0.54	1.23	reduced viability	no change	active
DDX18 (DEAD-box helicase 18)	4	0.42	1.64	reduced viability	no change	active
NUDT15 (nudix hydrolase 15)	1	0.93	1.32	no change	no change	inactive
NUDT15 (nudix hydrolase 15)	2	0.68	1.84	no change	no change	inactive
NUDT15 (nudix hydrolase 15)	3	0.92	1.09	no change	no change	inactive
NUDT15 (nudix hydrolase 15)	4	0.44	3.09	reduced viability	caspase activation	active
PLEKHB1 (pleckstrin homology domain containing B1)	1	0.85	1.04	no change	no change	inactive
PLEKHB1 (pleckstrin homology domain containing B1)	2	0.24	2.36	no change	no change	inactive
PLEKHB1 (pleckstrin homology domain containing B1)	3	0.5	2.06	reduced viability	no change	active
PLEKHB1 (pleckstrin homology domain containing B1)	4	0.68	1.02	no change	no change	inactive
MSS51 (MSS51 mitochondrial translational activator)	1	0.98	1.16	no change	no change	inactive
MSS51 (MSS51 mitochondrial translational activator)	2	0.74	1.67	no change	no change	inactive
MSS51 (MSS51 mitochondrial translational activator)	3	0.94	1.17	no change	no change	inactive
MSS51 (MSS51 mitochondrial translational activator)	4	0.41	4.04	reduced viability	caspase activation	active
MYCBPAP (MYCBP associated protein)	1	0.3	0.66	no change	no change	inactive
MYCBPAP (MYCBP associated protein)	2	0.82	1.23	no change	no change	inactive
MYCBPAP (MYCBP associated protein)	3	0.66	4.03	no change	caspase activation	active
MYCBPAP (MYCBP associated protein)	4	0.99	1.05	no change	no change	inactive

Entries listed so far whose gene name starts with N or n:
target	reagent no.	viability relative to mock	caspase activity relative to mock	viability hit class	caspase hit class	outcome
NUDT15 (nudix hydrolase 15)	1	0.93	1.32	no change	no change	inactive
NUDT15 (nudix hydrolase 15)	2	0.68	1.84	no change	no change	inactive
NUDT15 (nudix hydrolase 15)	3	0.92	1.09	no change	no change	inactive
NUDT15 (nudix hydrolase 15)	4	0.44	3.09	reduced viability	caspase activation	active
